Measured values as given in patent US6461807B1, “Methods for drug target screening” (priority 1997, dated 2002).
For at least one compound, name, drawing or mass did not settle the structure.

Tested on: S. cerevisiae wild-type and cna, cph1, fpr1 deletion strains
Assay: Transcript array comparison of drug-exposed wild-type and deletion mutant yeast, microarray with approximately 5900 ORFs
Format: cell-based, Saccharomyces cerevisiae
Details: 1 mg/ml FK506 or 30 mg/ml CSA
Procedure: The RNA was converted into cDNA while simultaneously incorporating fluorescent nucleotides, according to standard protocols as described above. The cDNAs were hybridized to either a microarray having 140 sites with relevant S. cerevisiae ORF sequences, or to a microarray having sites with 5900 sites with nearly all known S. cerevisiae ORF sequences. The intensities of the two fluors used to label the RNAs to be compared were measured at each site of the array. The ratio of these intensities is referred to as the expression ratio.
To produce deletion mutant transcript arrays, RNA was prepared from a publicly available S. cerevisiae strain that contains genetic disruptions in both catalytic subunits of calcineurin (hereinafter, the cna mutant) and its isogeneic with the parental wild-type strain. These two strains were grown in parallel, harvested and processed in an identical manner as described above. As above, the cDNAs were hybridized to the array and the intensities of the two fluors (expression ratio) were measured at each site of the array. Thereby a cna mutant transcript array was produced.
Selected pairs of the transcript arrays were compared by computing a correlation coefficient between the pairs as previously described. […]
The transcript arrays measured in Tables 1 and 2 were similarly produced by the previously described methods.

C=CC[C@@H]1/C=C(\C)C[C@H](C)C[C@H](OC)[C@H]2O[C@@](O)(C(=O)C(=O)N3CCCC[C@H]3C(=O)O[C@H](/C(C)=C/[C@@H]3CC[C@@H](O)[C@H](OC)C3)[C@H](C)[C@@H](O)CC1=O)[C@H](C)C[C@@H]2OC [FK506]
genes perturbed in both the wild-type drug transcript array and the cna mutant drug transcript array (remaining genes): three
